Results of single-concentration screens

Measurements from “University of Dundee, Small-Polar-MMV Screening Library” (2021), ChEMBL document CHEMBL3988442.

T. brucei: 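Whole-parasite assay of Trypanosoma brucei over 72 hours; the read-out is not stated. Tested at 30 µM. Direction is inferred from retests: higher values go with stronger inhibition. Values scatter widely below zero; nearly all retest evidence comes from the higher of the two concentrations used. About 64,000 compounds were tested under these conditions; 1.5% (about 940) showed 50% or more at least once.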
Leishmania in macrophages: 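Cell assay of Leishmania donovani living inside macrophages; the read-out is not stated. Concentration: 30 µM. Higher reads as stronger inhibition (inferred: compounds with an IC50 in retests scored well above the rest). Of about 69,000 compounds tested this way, about 1,000 (1.5%) reached 50% or more in at least one test.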

Each number is a percent effect as filed. How 0% and 100% were set is not recorded. Most values in the screen are low, and negative values occur. This is an unselected part of the compounds tested. Two or more numbers in one place are separate tests of the same structure; such repeats can differ widely. A dash means the value is not listed here; it may have been measured.

COc1cccc([C@@H]2CCN(Cc3c[nH]c(C)n3)C[C@H]2O)c1 read T. brucei: -25.72%; Leishmania in macrophages: 26.48%. Cc1nc2c(c(C)c1CC(=O)NCc1ccco1)c(=O)[nH]n2C gave Leishmania in macrophages: -2.516%. O=C(NCc1cccnc1-n1cncn1)c1cncc(Br)c1 read T. brucei: -4.967%; Leishmania in macrophages: -19.58% & 46.08%. With CCc1nc(CNc2ccc(F)c(F)c2)no1 the screen gave T. brucei: 2.524%; Leishmania in macrophages: 2.425%. Cc1ccc(OC2(C(=O)NC(C)Cc3ccsc3)CCNCC2)cc1 (configuration not stated) read T. brucei: -29.9%; Leishmania in macrophages: 17.34%. CC(C)c1nc(C2CCCN(C(=O)c3ccc4[nH]cnc4c3)C2)no1 (configuration not stated) read T. brucei: -0.8588%; Leishmania in macrophages: -1.138%. Result for CCCS(=O)(=O)NC(=O)c1ccc(-n2nc(C)cc2C)cc1 was T. brucei: -34.45%; Leishmania in macrophages: 8.904%.

For Cc1cc(NC2CCc3ncnn3C2)n2nc(C(F)(F)F)nc2n1 (configuration not stated) the result was T. brucei: -18.4%; Leishmania in macrophages: 6.961%. O=C(O)C(F)(F)F.O=C(O)C(F)(F)F.[H][C@@]12COC[C@]1(CNS(=O)(=O)CC)CN(Cc1ccncc1)C2 read T. brucei: -4.97%; Leishmania in macrophages: 9.982%. Nc1nc2c(c(NC(=O)Nc3cccc(Cl)c3)n1)CCCC2 read T. brucei: 6.445%; Leishmania in macrophages: 1.55% & 5.484%. Result for Cc1ccc(S(=O)(=O)N[C@H](CO)C(C)C)cc1N(C)C was T. brucei: -15.27%; Leishmania in macrophages: 13.03%. For CCCn1[nH]cc/c1=N\C(=O)CN1CCC[C@H]1CO the result was T. brucei: -6.043%; Leishmania in macrophages: 9.439%. Result for Cc1ccc(CNc2ccc(N3CCC(CO)CC3)cn2)o1 was T. brucei: -24.95%; Leishmania in macrophages: 5.552%. Cc1csc(N2CCCN(C(=O)C3(C#N)CCCCC3)CC2)n1 gave T. brucei: -4.176%; Leishmania in macrophages: 21.78%.

CCOCCN1CCc2cncnc2C1 read T. brucei: -23.94%; Leishmania in macrophages: 0.1147%. With CC(C)NC(=O)CNC(=O)c1csc(Cc2ccccc2F)n1 the screen gave T. brucei: -0.2913%; Leishmania in macrophages: -3.145%. O=C1CCCc2cc(-c3csc(CCN4CCOC4=O)n3)ccc2N1 read T. brucei: 32.55%; Leishmania in macrophages: 4.103%. O=C(NCc1ccccc1)NCC(O)c1cccc(F)c1 (configuration not stated) gave T. brucei: -6.32%; Leishmania in macrophages: -8.004%. For [H][C@]12CCN(C(=O)COC)CC[C@@]1([H])S(=O)(=O)N(Cc1ccccc1)C2 the result was T. brucei: -17.42%; Leishmania in macrophages: -19.12%. CN1CCN(c2ccc(F)cc2NC(=O)NCC[S+](C)[O-])CC1 (configuration not stated) gave T. brucei: -13.24%; Leishmania in macrophages: 26.83%. With Cc1cc(C)n(CC2CN(CC(=O)N3CCC3)CCO2)n1 (configuration not stated) the screen gave T. brucei: -4.126%; Leishmania in macrophages: 18.77%.

COc1cccc(CC(=O)N2CCN(c3cccc(C)c3)C(C)C2)c1 (configuration not stated) gave T. brucei: -27.93%; Leishmania in macrophages: 2.048%. Cc1nn(C)c(=O)c2nn(-c3cccc(Cl)c3)c(C)c12 read T. brucei: -2.315%; Leishmania in macrophages: -5.144%. O=C(CN1CCOc2ccccc2C1)N1Cc2cnn(CCO)c2C1 gave T. brucei: 4.255%; Leishmania in macrophages: 15.54%. For Cc1cc(C(F)(F)F)nn1CCCNC(=O)C1CCCC1 the result was T. brucei: -10.22%; Leishmania in macrophages: -4.114%. CCn1cnnc1C1CCN(C(=O)c2ccc3ccccc3n2)CC1 read T. brucei: 6.231%; Leishmania in macrophages: -36.11%. For CCOc1ccc(Br)cc1C1CCCCN1.Cl (configuration not stated) the result was T. brucei: 10.57%; Leishmania in macrophages: -11.44% & 22.51%. NC(=O)c1cc(C2CCCN(C(=O)CCc3ccccn3)C2)n[nH]1 (configuration not stated) gave Leishmania in macrophages: 21.05%.

For CN(C)C(C(=O)NCC1(Cn2cccn2)CC1)c1ccc(F)cc1 (configuration not stated) the result was T. brucei: -40.72%; Leishmania in macrophages: 18.23%. For Cc1nc2c(c(NCCCN3CCOCC3)n1)CCN(C)C2 the result was T. brucei: 6.064%; Leishmania in macrophages: 22.12%. CC(C(=O)N1CCN(c2ccc(F)cc2)CC1)n1ccnc1 (configuration not stated) gave T. brucei: 10.73%; Leishmania in macrophages: 2.359%. Cc1cc(C(=O)N(C)Cc2ccn[nH]2)c(NC(=O)C(C)(C)C)s1 gave T. brucei: -3.517%; Leishmania in macrophages: 4.687%.

Repeated from the top, 4 entries:

| structure | T. brucei | Leishmania in macrophages |
|---|---|---|
| `COc1cccc([C@@H]2CCN(Cc3c[nH]c(C)n3)C[C@H]2O)c1` | -25.72 | 26.48 |
| `Cc1nc2c(c(C)c1CC(=O)NCc1ccco1)c(=O)[nH]n2C` | - | -2.516 |
| `O=C(NCc1cccnc1-n1cncn1)c1cncc(Br)c1` | -4.967 | -19.58 & 46.08 |
| `CCc1nc(CNc2ccc(F)c(F)c2)no1` | 2.524 | 2.425 |